Values from PubChem BioAssay AID720505 (Drosophila RNAi Screening Center, 2013)

Test: 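Knock-downs that reduce calcium influx once internal stores are emptied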 (primary screen)
System: Drosophila S2R+ cells
Reagents: long dsRNA against Drosophila genes
Challenge: thapsigargin (2 µM) in calcium-free buffer to empty internal stores, then 2 mM calcium added back
Measurement: 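Stores emptied by 2 µM thapsigargin without calcium, then 2 mM calcium re-added; fluo-4 fluorescence followed by FLIPR in 384-well plates, per-well averaged endpoint, raw; two screen passes, some wells retested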
Scale: calcium signal and retest calcium signal: higher = more calcium entry after store depletion
Call rule: 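About 1500 genes called as lowering calcium entry, by varying amounts, judged against per-plate control wells with STIM1 as positive and Rho1 as negative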
Meaning of the calls: active = called as lowering calcium entry; inactive = not called
The screen tested about 20,000 reagents; this is a random part of those that have a named target and a result. Over the whole deposit, about 2,100 (10%) were called active. 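Raw plate signals without normalisation; calls rest on control-based scores that were not deposited; replicate 2 separates called from uncalled poorly.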 Not given: the amount of reagent, the time to read-out.

Against CG13721 [DRSC08330], the values are calcium signal, replicate 1 = 75.9; calcium signal, replicate 2 = 67.8; inactive.
Depletion of Fim (Fimbrin) [DRSC20243] came out at: calcium signal, replicate 1 = 73.5; calcium signal, replicate 2 = 100; active.
For Or85f (Odorant receptor 85f) [DRSC16769], the values are calcium signal, replicate 1 = 119; calcium signal, replicate 2 = 96.9; inactive.
Ir52d (Ionotropic receptor 52d) [DRSC06264] showed calcium signal, replicate 1 = 111; calcium signal, replicate 2 = 203; inactive.
Depletion of CR40282 (pseudo) [DRSC07814] came out at: calcium signal, replicate 1 = 91.8; calcium signal, replicate 2 = 122; inactive.
After knock-down of Bub3 [DRSC14168], the screen gave calcium signal, replicate 1 = 58.3; calcium signal, replicate 2 = 140; active.
Against Nedd4 [DRSC11234] the deposit lists calcium signal, replicate 1 = 133; calcium signal, replicate 2 = 136; inactive.
Nedd4 [DRSC21548] scored calcium signal, replicate 1 = 255; calcium signal, replicate 2 = 114; inactive.
After knock-down of Cpr65Av (Cuticular protein 65Av) [DRSC09727], the record shows calcium signal, replicate 1 = 129; calcium signal, replicate 2 = 117; inactive.
Against angel [DRSC04670], the entry reads calcium signal, replicate 1 = 140; calcium signal, replicate 2 = 97.9; inactive.
Against angel [DRSC21326], the entry reads calcium signal, replicate 1 = 86.3; calcium signal, replicate 2 = 75.9; inactive.
Against CG5823 [DRSC15881] the deposit lists calcium signal, replicate 1 = 145; calcium signal, replicate 2 = 216; inactive.
Depletion of CG14572 [DRSC11733] gave: calcium signal, replicate 1 = 97.4; calcium signal, replicate 2 = 229; inactive.
With knock-down of CG33635 [DRSC00006], the record shows calcium signal, replicate 1 = 63.4; calcium signal, replicate 2 = 71.3; active.
CG32295 [DRSC23259] showed calcium signal, replicate 1 = 98; calcium signal, replicate 2 = 98.5; inactive.

A stretch from the list above:
Nedd4 [DRSC11234] — calcium signal, replicate 1: 133; calcium signal, replicate 2: 136; Outcome: inactive
Nedd4 [DRSC21548] — calcium signal, replicate 1: 255; calcium signal, replicate 2: 114; Outcome: inactive
Cpr65Av (Cuticular protein 65Av) [DRSC09727] — calcium signal, replicate 1: 129; calcium signal, replicate 2: 117; Outcome: inactive

Continued:
For CG33307 [DRSC01349] the deposit lists calcium signal, replicate 1 = 219; calcium signal, replicate 2 = 94.5; inactive.
After knock-down of CG2909 [DRSC18241], the screen gave calcium signal, replicate 1 = 69.6; calcium signal, replicate 2 = 98.4; active.
For CkIIalpha (casein kinase IIalpha) [DRSC11946], the values are calcium signal, replicate 1 = 110; calcium signal, replicate 2 = 169; inactive.
Against SoxN (SoxNeuro) [DRSC03440] the deposit lists calcium signal, replicate 1 = 85.9; calcium signal, replicate 2 = 90.5; retest calcium signal, replicate 1 = 102; retest calcium signal, replicate 2 = 140; inactive.
SoxN (SoxNeuro) [DRSC21779] gave calcium signal, replicate 1 = 121; calcium signal, replicate 2 = 106; inactive.
Against UQCR-14 (Ubiquinol-cytochrome c reductase 14 kDa subunit) [DRSC19870], the values are calcium signal, replicate 1 = 99.8; calcium signal, replicate 2 = 128; inactive.
With knock-down of car (carnation) [DRSC20316], the screen gave calcium signal, replicate 1 = -15.6; calcium signal, replicate 2 = 101; inactive.
With knock-down of Frl (Formin-like) [DRSC10027] the results were calcium signal, replicate 1 = 75.7; calcium signal, replicate 2 = 102; inactive.
With knock-down of Frl (Formin-like) [DRSC10716], the screen gave calcium signal, replicate 1 = 80.1; calcium signal, replicate 2 = 90.7; retest calcium signal, replicate 1 = 6406; retest calcium signal, replicate 2 = 105; inactive.
For MAPk-Ak2 (MAP kinase activated protein-kinase-2) [DRSC18678], the values are calcium signal, replicate 1 = 223; calcium signal, replicate 2 = 134; inactive.
For CG1354 [DRSC17902], the values are calcium signal, replicate 1 = 120; calcium signal, replicate 2 = 87.1; inactive.
Silencing of wus (wurst) [DRSC20278] resulted in: calcium signal, replicate 1 = 76.9; calcium signal, replicate 2 = 102; active.
Silencing of iPLA2-VIA (calcium-independent phospholipase A2 VIA) [DRSC10699] resulted in: calcium signal, replicate 1 = 58.4; calcium signal, replicate 2 = 68.3; active.
